Source: patent publication US5837684A (Nycomed Imaging AS, priority 1995, dated 1998)

Experiment: general procedure: Fmoc solid-phase peptide synthesis; TentaGel resins with a trityl-derived linker (TentaGel S Trt / TentaGel R Trt, Rapp Polymere)
Conditions: whole synthesis, λ=215 nm

Row | Substance | final HPLC purity [%]
1 | H-TLYYWRASST-OH | 97
2 | PEPTIDE1{I.I.T.Y.R.K.G.S.S.T}$$$$V2.0 | 98
3 | PEPTIDE1{T.L.Y.Y.W.K.S.S.S.S}$$$$V2.0 | 99

Strings that start with PEPTIDE1 are HELM notation: dots part the residues, brackets hold end groups and non-standard residues.
